{"sequences": {"note": "Chains of the proteins cited; added tags and fusions are not shown. Lines headed by an entry give the natural chain unless they say otherwise; changes in a name come on top.", "UniProt P18850": "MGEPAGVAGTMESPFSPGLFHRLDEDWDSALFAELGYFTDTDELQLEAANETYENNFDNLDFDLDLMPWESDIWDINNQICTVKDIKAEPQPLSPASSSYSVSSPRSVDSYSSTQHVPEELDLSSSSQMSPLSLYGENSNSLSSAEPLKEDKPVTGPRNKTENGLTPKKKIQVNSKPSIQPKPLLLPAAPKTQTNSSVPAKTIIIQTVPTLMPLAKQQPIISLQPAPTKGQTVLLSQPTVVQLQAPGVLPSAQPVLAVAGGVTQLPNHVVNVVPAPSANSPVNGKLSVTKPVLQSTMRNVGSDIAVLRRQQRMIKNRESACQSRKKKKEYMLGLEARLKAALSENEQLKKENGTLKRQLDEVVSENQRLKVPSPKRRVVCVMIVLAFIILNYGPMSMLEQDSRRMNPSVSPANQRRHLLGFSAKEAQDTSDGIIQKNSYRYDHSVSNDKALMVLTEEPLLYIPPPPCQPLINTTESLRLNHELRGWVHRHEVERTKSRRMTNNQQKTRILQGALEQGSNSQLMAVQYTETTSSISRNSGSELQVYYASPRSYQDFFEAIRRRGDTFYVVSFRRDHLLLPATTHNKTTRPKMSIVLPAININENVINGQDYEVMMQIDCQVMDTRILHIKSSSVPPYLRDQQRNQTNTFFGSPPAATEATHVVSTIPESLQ"}, "source": "patent US20240207207A1", "about": "“METHODS FOR MITIGATING AND PREVENTING PROTEOSTASIS-BASED INJURIES” (San Diego State University (SDSU) Foundation, dba San Diego …, priority 2018, published 2024)", "key": {"[1]": {"test_system": "ATF6 target genes Grp78 and Cat", "test": "Grp78 and Cat levels in cultured cardiac myocytes (ICF, immunoblot)", "assay_type": "cell-based", "details": "24 hours after treatment"}, "[2]": {"test_system": "chronic myocardial I/R injury", "test": "chronic I/R model (7 days after AMI)", "assay_type": "in vivo, mouse"}, "[3]": {"test_system": "human embryonic stem cells", "details": "recent report; cited from earlier work"}, "[4]": {"test_system": "ATF6 binding sites in the Grp78 and Cat promoters", "test": "chromatin immunoprecipitation (ChIP-qPCR) in NRVM infected with AdV Flag-ATF6 (1-670)", "assay_type": "cell-based, rat", "details": "24 hours after treatment"}, "[5]": {"biological_target": "T1, ATF6 (Homo sapiens, UniProt P18850)", "T1 construct": "host or cells: HEK293", "details": "HEK293 cells, earlier report; cited from earlier work"}, "[6]": {"test_system": "ATF6-regulated genes Grp78 and Cat", "test": "ATF6 target gene induction in mouse tissues after intravenous administration (qPCR, IHC, immunoblot)", "assay_type": "in vivo", "details": "for ATF6 activation and Grp78 and Cat expression in hearts: intravenous 2 mg/kg, 24 hours post-treatment, LV; for expression of Grp78 and Cat: chronic I/R", "description": "Immunoblot analysis. NRVM were lysed and subjected to immunoblot analysis, as previously described^10. In brief, cultures were lysed with VC lysis buffer made from 20 mM Tris-HCl (pH 7.5), 150 mM NaCl, 0.1% SDS, 1% Triton X-100™, protease inhibitor cocktail (Roche Diagnostics, Indianapolis, IN) and phosphatase inhibitor cocktail (Roche Diagnostics). Samples comprising 10 μg of protein were mixed with Laemmli sample buffer, boiled, then subjected to SDS-PAGE followed by transfer onto PVDF membranes for immunoblotting. Full-length Atf6 (p90) was detected with an antibody from SAB Signalway™ Antibody (1:1000, cat #32008, College Park, MD), while active Atf6 (p50) was detected with an antibody from Proteintech™ (1:1000, cat #24169-1-AP, Rosemont, IL). Other antibodies used include: anti-KDEL antibody (1:8,000, cat #ADI-SPA-827, Enzo Life Sciences, Farmingdale, NY), which was used to detect GRP78™, anti-catalase (1:1000, cat #ab16731, Abcam), anti-IRE1 (1:500, cat #sc-390960, Santa Cruz), anti-XBP1s (1:1000, cat #619502, BioLegend™ San Diego, CA), anti-phospho-PERK (1:1000, cat #3179, Cell Signaling), anti-PERK (1:1000, cat #3192, Cell Signaling), anti-Anp (1:4000, cat #T-4014, Peninsula), anti-Gapdh (1:25000, cat #G109a, Fitzgerald Industries International Inc.), HA-probe F-7 (Santa Cruz, SC-7392; 1:1,000) and anti-FLAG (1:3,000, cat #F1804, Sigma-Aldrich, St. Louis, MO). The oxidation state of ATF6 in NRVM treated with compound 147 was analyzed by gel-shift essentially as previously described^32. Briefly, cells were lysed in low-stringency lysis buffer comprising 20 mM Tris-HCl (pH 7.5), 150 mM NaCl, 1% Triton X-100, protease inhibitor cocktail (Roche Diagnostics, Indianapolis, IN) and phosphatase inhibitor cocktail (Roche Diagnostics) and 20 μM 4-Acetamido-4′-Maleimidylstilbene-2,2′-Disulfonic Acid, Disodium Salt (AMS) (Thermo Fisher, cat #A485). AMS binds covalently to reduced thiols, typically on cysteine residues, and increases their molecular mass in SDS-PAGE. […] Total RNA was extracted from left ventricular extract using the RNeasy Mini™ kit (Qiagen) as previously described^10. All qPCR probes were obtained from Integrated DNA Technologies as previously described^10,33.\nImmunocyto- and immunohistochemistry. NRVM and AMVM were plated on fibronectin and laminin-coated glass chamber slides, respectively as previously described^10. In brief, cells were fixed with 4% paraformaldehyde, followed by permeabilization with 0.5% Triton-X. Adult mouse hearts were paraffin-embedded after fixation in neutral buffered 10% formalin via abdominal aorta retroperfusion as previously described^10. […] The left ventricular free wall was imaged in sham and non-injured hearts. Primary antibodies used were anti-α-actinin (1:200, cat #A7811, Sigma-Aldrich), anti-tropomyosin (1:200, cat #T9283, Sigma-Aldrich), anti-GRP78 (C-20, 1:30, cat #SC-1051, Santa Cruz), anti-catalase (1:100, Abcam), anti-ATF6 (targeting to N-terminus of ATF6, 1:50, cat #sc-14250, Santa Cruz), and anti-cleaved caspase-3 (1:100, cat #D175, Cell Signaling). Slides were incubated with appropriate fluorophore-conjugated secondary antibodies (1:100, Jackson ImmunoResearch Laboratories, West Grove, PA) followed by nuclei counter stain Topro-3 (1:2000, Thermo Fisher). Images were obtained using laser scanning confocal microscopy on an LSM 710 confocal laser scanning microscope (Carl Zeiss, Oberkochen, Germany).\nMalondialdehyde assay. Lipid peroxidation was determined by measuring the levels of malondialdehyde (MDA) using a TBARS assay kit (Cayman Chemical, Ann Arbor, MI) according to the manufacturer's instructions as previously described^10. In vivo experimental compound administration. Control compound and compound 147 were suspended to a final concentration of 0.2 mg/mL in 10% DMSO. […]"}, "[7]": {"test_system": "isoproterenol-induced myocardial damage", "test": "acute isoproterenol myocardial damage", "assay_type": "in vivo, mouse", "details": "isoproterenol 200 mg/kg intraperitoneal"}, "[8]": {"test_system": "adult mouse ventricular myocytes (AMVM)", "test": "viability of I/R-treated adult cardiomyocytes (AMVM) isolated from treated mice", "assay_type": "cell-based", "details": "2 mg/kg IV"}, "[9]": {"test_system": "ER protein misfolding in the liver", "test": "tunicamycin-induced dysregulated hepatic proteostasis", "assay_type": "in vivo, mouse", "details": "24 hours pre-treatment; for ER protein misfolding measured by XBP1 splicing (Xbp1s to Xbp1) in liver: then 2 mg/kg TM; for hepatic triglycerides: then 2 mg/kg TM for 12 hours"}}, "note": "At least one compound was matched to its structure with a doubt left."}
{"compound": "Cc1ccc(O)c(NC(=O)CCc2ccccc2)c1", "note": "[compound 147]", "values": [{"measurement": "mRNA levels of Grp78 and Cat", "setting": "[1]", "result": "increased mRNA levels of both genes"}, {"measurement": "diastolic cardiac function (E and A waves)", "setting": "[2]; 7 d post-AMI, Trials 5-7", "result": "preserved diastolic cardiac function"}, {"measurement": "left ventricular dilatation (LVEDV, LVESV)", "setting": "[2]; 7 d post-AMI, Trials 5-7", "result": "preserved"}, {"measurement": "pathological cardiac hypertrophy (heart weight to body weight)", "setting": "[2]; 7 d post-AMI, Trials 5-7", "result": "reduce pathological cardiac hypertrophy"}, {"measurement": "cardiac performance (fractional shortening)", "setting": "[2]; 7 d post-AMI, Trials 5-7, 2 mg/kg IV", "result": "preserved to similar extents in all trials"}, {"measurement": "plasma cTnI", "setting": "[2]; 7 d post-AMI, Trials 5-7, somewhat less so in Trials 6 and 7", "result": "decreased plasma cTnI in all trials"}, {"measurement": "levels of pro-apoptotic cleaved caspase-3", "setting": "[2]; IHC, border zone, Trials 5-7", "result": "decreased levels of pro-apoptotic cleaved caspase-3"}, {"measurement": "I/R induced cardiac pathology genes", "setting": "[2]; border zone, Trials 5-7 vs Trial 4", "result": "blunted"}, {"measurement": "differentiation of human embryonic stem cells", "setting": "[3]", "result": "enhances the differentiation of human embryonic stem cells"}, {"measurement": "cleavage, activation and association of ATF6 with ATF6 binding sites in the Grp78 and Cat promoters", "setting": "[4]", "result": "increased the cleavage, activation, and association of ATF6 with known ATF6 binding sites in the Grp78 and Cat promoters"}, {"measurement": "ATF6 activation", "setting": "[5]", "result": "specifically activate ATF6"}, {"measurement": "ATF6 activation and Grp78 and Cat expression in hearts", "setting": "[6]; ATF6 cKO mice", "result": "completely absent"}, {"measurement": "expression of Grp78 and Cat in LV", "setting": "[6]; Trial 2 (injected at days 0 and 4) vs Trial 1, mice without I/R, day 7", "result": "increased the expression of the ATF6-regulated genes Grp78 and Cat"}, {"measurement": "Atp2a2 expression", "setting": "[6]; Trial 2, mice without I/R", "result": "increases in Atp2a2 expression"}, {"measurement": "gene induction in LV", "setting": "[6]; Trial 3 (injected once at day 0) vs Trial 1, mice without I/R, day 7", "result": "No significant gene induction"}, {"measurement": "ATF6 activation and Grp78 and Cat expression in hearts", "setting": "[6]; WT mice", "result": "activated ATF6 and increased Grp78 and Cat expression"}, {"measurement": "activation of ATF6 target genes (Grp78 and Cat) in the heart, liver, kidney and brain", "setting": "[6]; WT mice, within 24 h of administration", "result": "robust activation of ATF6 target genes"}, {"measurement": "expression of Grp78 and Cat", "setting": "[6]; Trial 7 (one dose at reperfusion), at culmination of study", "result": "comparable to control treated animals"}, {"measurement": "expression of Grp78 and Cat", "setting": "[6]; Trials 5 and 6, at culmination of study", "result": "increased expression"}, {"measurement": "beneficial effects (infarct sizes and plasma cTnI)", "setting": "[7]", "result": "beneficial effects of compound 147 were also seen"}, {"measurement": "viability of isolated myocytes subjected to I/R in vitro", "setting": "[8]; myocytes from ATF6 cKO mice treated 24 h", "result": "benefit was absent"}, {"measurement": "viability of isolated myocytes subjected to I/R in vitro", "setting": "[8]; myocytes from WT mice treated 24 h, vs negative control", "result": "increased viability"}, {"measurement": "ER protein misfolding measured by XBP1 splicing (Xbp1s to Xbp1) in liver", "setting": "[9]; ATF6 KO mice", "result": "lost upon genetic deletion of ATF6"}, {"measurement": "hepatic triglycerides", "setting": "[9]; ATF6 KO mice", "result": "lost upon deletion of ATF6"}, {"measurement": "ER protein misfolding measured by XBP1 splicing (Xbp1s to Xbp1) in liver", "setting": "[9]; WT mice", "result": "significantly reduced ER protein misfolding"}, {"measurement": "hepatic triglycerides", "setting": "[9]; WT mice", "result": "reduce hepatic triglycerides"}]}
